In publication PMC10856354 (International Journal of Molecular Sciences, 2024):

Assay: general procedure: Fmoc solid-phase peptide synthesis; H-L-Cys(Acm)-2-chlorotrityl resin (substitution 0.40 mmol/g); HOBt/DIC
Settings: whole synthesis, scale of the general procedure 250 mg resin with a 0.4 mmol/g loading; for final HPLC purity: RP-HPLC, UV trace (system 2, Symmetry C18)

Substance | final HPLC purity | isolated yield | isolated yield (overall)
DOTA(tris(^tBu))-Ala^1-Gly^2-Cys(Acm)^3-Lys(Boc)^4-Asn(Trt)^5-Cys(Trt)^6-Phe^7-DTrp(Boc)^8-Lys(Boc)^9-Thr(^tBu)^10-Cys(Trt)^11-Thr(^tBu)^12-Ser(^tBu)^13-Cys(Acm)^14 | 94% | 27% | 
DOTA(tris(^tBu))-Ala^1-Gly^2-Cys(Acm)^3-Lys(Boc)^4-Cys(Trt)^5-Phe^6-Phe^7-DTrp(Boc)^8-Lys(Boc)^9-Thr(^tBu)^10-Phe^11-Cys(Trt)^12-Ser(^tBu)^13-Cys(Acm)^14 | >93% |  | 27%
